Assay results from patent publication US20150005320A9, “COMPOUNDS FOR INFLAMMATION AND IMMUNE-RELATED USES” (Synta Pharmaceuticals Corp., priority 2003, published 2015).
For at least one compound, name, drawing or mass did not settle the structure.

Amino acid sequences for entries named in this document (tags omitted). A change or cut given only in a name is not applied to a line headed by its entry.
UniProt Q8TD43: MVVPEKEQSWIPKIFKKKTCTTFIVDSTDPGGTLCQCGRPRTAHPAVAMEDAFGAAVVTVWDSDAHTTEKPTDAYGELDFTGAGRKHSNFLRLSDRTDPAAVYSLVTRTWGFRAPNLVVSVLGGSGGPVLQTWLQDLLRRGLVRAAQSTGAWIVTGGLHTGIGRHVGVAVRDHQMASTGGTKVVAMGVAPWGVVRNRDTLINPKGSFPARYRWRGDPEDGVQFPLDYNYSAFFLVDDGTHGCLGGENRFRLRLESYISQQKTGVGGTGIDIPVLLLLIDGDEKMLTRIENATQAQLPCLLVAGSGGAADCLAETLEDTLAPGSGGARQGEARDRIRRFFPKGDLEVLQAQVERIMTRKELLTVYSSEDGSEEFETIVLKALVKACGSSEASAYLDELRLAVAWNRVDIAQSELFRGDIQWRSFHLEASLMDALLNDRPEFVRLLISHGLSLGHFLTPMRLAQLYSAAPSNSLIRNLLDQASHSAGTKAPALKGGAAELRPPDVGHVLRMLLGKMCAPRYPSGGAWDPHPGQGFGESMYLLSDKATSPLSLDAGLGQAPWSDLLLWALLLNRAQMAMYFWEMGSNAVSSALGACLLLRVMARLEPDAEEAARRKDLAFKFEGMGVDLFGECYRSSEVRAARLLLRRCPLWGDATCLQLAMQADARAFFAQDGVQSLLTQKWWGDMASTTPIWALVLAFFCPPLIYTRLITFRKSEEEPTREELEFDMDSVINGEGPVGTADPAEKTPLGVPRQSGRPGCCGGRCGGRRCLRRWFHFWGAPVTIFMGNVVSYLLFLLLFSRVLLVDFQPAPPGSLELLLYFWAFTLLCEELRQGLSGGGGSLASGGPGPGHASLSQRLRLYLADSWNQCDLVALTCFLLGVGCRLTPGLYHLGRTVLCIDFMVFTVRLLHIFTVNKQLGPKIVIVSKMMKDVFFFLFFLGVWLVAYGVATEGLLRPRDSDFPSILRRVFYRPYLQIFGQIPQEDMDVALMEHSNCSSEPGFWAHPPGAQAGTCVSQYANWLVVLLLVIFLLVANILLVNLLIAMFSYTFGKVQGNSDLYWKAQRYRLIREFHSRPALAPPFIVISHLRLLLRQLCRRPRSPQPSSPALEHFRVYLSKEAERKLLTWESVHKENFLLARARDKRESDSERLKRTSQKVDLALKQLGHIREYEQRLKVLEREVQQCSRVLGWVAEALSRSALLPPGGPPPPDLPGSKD

What was measured:
TRPM4 = target: T1, TRPM4 (Homo sapiens, UniProt Q8TD43); assay: Activation of TRPM4 channel, patch clamp in Jurkat cells and HEK-293 cells overexpressing TRPM4; type: cell-based; conditions: Jurkat cells, 10 μM compound
T1 construct: FLAG (N); expressed in transfected cells; host or cells: HEK 293 (tetracycline-induced, pcDNA4/TO); also Jurkat cells

TNF-α production = TNF-α production upon PMA/ionomycin stimulation in whole blood from dosed cynomolgus monkeys; type: in vivo; conditions: cynomolgus monkey, 4 hours after dosing
Protocol: (§1) 3 male non-naïve cynomolgus monkeys were fasted overnight prior to and for four (4) hours following each dose. Each monkey was given a single intravenous dose of the appropriate test compound followed by a 1 mL rinse of saline to flush the catheter. The dose was infused over one hour using calibrated syringe pumps. Following a one week washout, the same three monkeys were given a single oral gavage dose of the appropriate test compound dose formulation followed by a 10 mL flush with tap water. Following a second one week washout, the same three monkeys received a second oral dose of the appropriate test compound dose formulation followed by a 10 mL flush with tap water. Following a third one week washout, the same three monkeys received a third oral dose of the appropriate test compound dose formulation followed by a 10 mL flush with tap water. Prior to and at 1, 2, and 4 hours following each dose (measured from the start of dosing for IV doses), blood samples (3 mL/sample for Group 1 and 2 mL/sample for Groups 2 and 3) were drawn into tubes containing sodium heparin and stored at room temperature, and the concentration of the test compounds in each sample was measured. CsA was included as a positive control.

IL-2 production = IL-2 production upon PMA/ionomycin stimulation in whole blood from dosed cynomolgus monkeys; type: in vivo; conditions: cynomolgus monkey, 4 hours after dosing
Protocol: as §1

| Structure (SMILES) | effect on TRPM4 currents (TRPM4) | TNF-α production after IV infusion (TNF-α production; IV 5 mg/kg, FIG. 4) | TNF-α production after oral dosing (TNF-α production; PO 30 mg/kg, FIG. 6) | IL-2 production after IV infusion (IL-2 production; IV 5 mg/kg, FIG. 3) | IL-2 production after oral dosing (IL-2 production; PO 30 mg/kg, FIG. 5) |
| --- | --- | --- | --- | --- | --- |
| COc1ccc(OC)c(-c2ccc(NC(=O)c3ccncc3F)cc2)c1 [Compound 66, 3-fluoro-pyridine-4-carboxylic acid (2′,5′-dimethoxybiphenyl-4-yl)-amide] | no effect |  |  |  |  |
| CSc1ccccc1-c1ccc(NC(=O)c2ccncc2C)cc1 [Compound 75, 3-methyl-pyridine-4-carboxylic acid (2′-methylsulfanyl-biphenyl-4-yl)-amide] |  | significantly inhibit | significantly inhibit | significantly inhibit | significantly inhibit |
